Assay results taken from publication PMC7154107.
Residue numbers refer to the chain shown, from its start. In names and notes the source's numbering stands. These are yes or no findings as the source states them, for the method shown. In cells and extracts the contact can be indirect. Some binding calls cover weakened binding; strength is not graded here.

T1: human NaDC-1 (sodium dicarboxylate cotransporter-1, SLC13A2) (human) (UniProt Q13183)
T1 sequence: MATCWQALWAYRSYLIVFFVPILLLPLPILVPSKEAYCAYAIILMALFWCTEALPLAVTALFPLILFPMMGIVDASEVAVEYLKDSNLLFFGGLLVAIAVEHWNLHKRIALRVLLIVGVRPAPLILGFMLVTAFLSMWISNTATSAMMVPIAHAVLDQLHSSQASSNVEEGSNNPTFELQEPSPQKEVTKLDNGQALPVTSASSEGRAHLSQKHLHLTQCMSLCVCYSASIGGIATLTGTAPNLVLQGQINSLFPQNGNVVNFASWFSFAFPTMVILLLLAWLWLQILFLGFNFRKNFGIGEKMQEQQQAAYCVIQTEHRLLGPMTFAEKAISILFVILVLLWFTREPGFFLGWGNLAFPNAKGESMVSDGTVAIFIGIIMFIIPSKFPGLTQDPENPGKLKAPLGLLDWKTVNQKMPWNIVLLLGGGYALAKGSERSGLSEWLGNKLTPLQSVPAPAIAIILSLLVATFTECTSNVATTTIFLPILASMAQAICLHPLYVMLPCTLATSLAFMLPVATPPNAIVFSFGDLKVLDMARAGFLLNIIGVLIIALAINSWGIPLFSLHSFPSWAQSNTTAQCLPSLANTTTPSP

B1: human SLC26A6(WT) (protein, UniProt Q9BXS9-1 1-759)
chain: MGLADASGPRDTQALLSATQAMDLRRRDYHMERPLLNQEHLEELGRWGSAPRTHQWRTWLQCSRARAYALLLQHLPVLVWLPRYPVRDWLLGDLLSGLSVAIMQLPQGLAYALLAGLPPVFGLYSSFYPVFIYFLFGTSRHISVGTFAVMSVMVGSVTESLAPQALNDSMINETARDAARVQVASTLSVLVGLFQVGLGLIHFGFVVTYLSEPLVRGYTTAAAVQVFVSQLKYVFGLHLSSHSGPLSLIYTVLEVCWKLPQSKVGTVVTAAVAGVVLVVVKLLNDKLQQQLPMPIPGELLTLIGATGISYGMGLKHRFEVDVVGNIPAGLVPPVAPNTQLFSKLVGSAFTIAVVGFAIAISLGKIFALRHGYRVDSNQELVALGLSNLIGGIFQCFPVSCSMSRSLVQESTGGNSQVAGAISSLFILLIIVKLGELFHDLPKAVLAAIIIVNLKGMLRQLSDMRSLWKANRADLLIWLVTFTATILLNLDLGLVVAVIFSLLLVVVRTQMPHYSVLGQVPDTDIYRDVAEYSEAKEVRGVKVFRSSATVYFANAEFYSDALKQRCGVDVDFLISQKKKLLKKQEQLKLKQLQKEEKLRKQAASPKGASVSINVNTSLEDMRSNNVEDCKMMQVSSGDKMEDATANGQEDSKAPDGSTLKALGLPQPDFHSLILDLGALSFVDTVCLKSLKNIFHDFREIEVEVYMAACHSPVVSQLEAGHFFDASITKKHLFASVHDAVTFALQHPRPVPDSPVSVTRL
B2: human SLC26A6(D674N) (protein, UniProt Q9BXS9-1 1-759)
chain: B1 chain with D674N
B3: human SLC26A6(R621G) (protein, UniProt Q9BXS9-1 1-759)
chain: B1 chain with R621G

Each binder was assayed against T1, human NaDC-1 (sodium dicarboxylate cotransporter-1, SLC13A2) (human) (assay: co-IP; HEK293T cells transfected, lysates after 2 days (PBS, 10 mM Na-pyrophosphate, 50 mM NaF, pH 7.4, 1% Triton X-100); NaDC-1 precipitated with anti-His antibody and Protein G Sepharose at 4°C; blot with anti-SLC26A6; SLC26A6 expression levels adjusted).

binding, binds:
B1
B2
B3
